Source: the supplement of paper PMC10849652
The other results are listed elsewhere or left out.

Chains of the proteins cited; added tags and fusions are not shown. Lines headed by an entry give the natural chain unless they say otherwise; changes in a name come on top.
UniProt P58107: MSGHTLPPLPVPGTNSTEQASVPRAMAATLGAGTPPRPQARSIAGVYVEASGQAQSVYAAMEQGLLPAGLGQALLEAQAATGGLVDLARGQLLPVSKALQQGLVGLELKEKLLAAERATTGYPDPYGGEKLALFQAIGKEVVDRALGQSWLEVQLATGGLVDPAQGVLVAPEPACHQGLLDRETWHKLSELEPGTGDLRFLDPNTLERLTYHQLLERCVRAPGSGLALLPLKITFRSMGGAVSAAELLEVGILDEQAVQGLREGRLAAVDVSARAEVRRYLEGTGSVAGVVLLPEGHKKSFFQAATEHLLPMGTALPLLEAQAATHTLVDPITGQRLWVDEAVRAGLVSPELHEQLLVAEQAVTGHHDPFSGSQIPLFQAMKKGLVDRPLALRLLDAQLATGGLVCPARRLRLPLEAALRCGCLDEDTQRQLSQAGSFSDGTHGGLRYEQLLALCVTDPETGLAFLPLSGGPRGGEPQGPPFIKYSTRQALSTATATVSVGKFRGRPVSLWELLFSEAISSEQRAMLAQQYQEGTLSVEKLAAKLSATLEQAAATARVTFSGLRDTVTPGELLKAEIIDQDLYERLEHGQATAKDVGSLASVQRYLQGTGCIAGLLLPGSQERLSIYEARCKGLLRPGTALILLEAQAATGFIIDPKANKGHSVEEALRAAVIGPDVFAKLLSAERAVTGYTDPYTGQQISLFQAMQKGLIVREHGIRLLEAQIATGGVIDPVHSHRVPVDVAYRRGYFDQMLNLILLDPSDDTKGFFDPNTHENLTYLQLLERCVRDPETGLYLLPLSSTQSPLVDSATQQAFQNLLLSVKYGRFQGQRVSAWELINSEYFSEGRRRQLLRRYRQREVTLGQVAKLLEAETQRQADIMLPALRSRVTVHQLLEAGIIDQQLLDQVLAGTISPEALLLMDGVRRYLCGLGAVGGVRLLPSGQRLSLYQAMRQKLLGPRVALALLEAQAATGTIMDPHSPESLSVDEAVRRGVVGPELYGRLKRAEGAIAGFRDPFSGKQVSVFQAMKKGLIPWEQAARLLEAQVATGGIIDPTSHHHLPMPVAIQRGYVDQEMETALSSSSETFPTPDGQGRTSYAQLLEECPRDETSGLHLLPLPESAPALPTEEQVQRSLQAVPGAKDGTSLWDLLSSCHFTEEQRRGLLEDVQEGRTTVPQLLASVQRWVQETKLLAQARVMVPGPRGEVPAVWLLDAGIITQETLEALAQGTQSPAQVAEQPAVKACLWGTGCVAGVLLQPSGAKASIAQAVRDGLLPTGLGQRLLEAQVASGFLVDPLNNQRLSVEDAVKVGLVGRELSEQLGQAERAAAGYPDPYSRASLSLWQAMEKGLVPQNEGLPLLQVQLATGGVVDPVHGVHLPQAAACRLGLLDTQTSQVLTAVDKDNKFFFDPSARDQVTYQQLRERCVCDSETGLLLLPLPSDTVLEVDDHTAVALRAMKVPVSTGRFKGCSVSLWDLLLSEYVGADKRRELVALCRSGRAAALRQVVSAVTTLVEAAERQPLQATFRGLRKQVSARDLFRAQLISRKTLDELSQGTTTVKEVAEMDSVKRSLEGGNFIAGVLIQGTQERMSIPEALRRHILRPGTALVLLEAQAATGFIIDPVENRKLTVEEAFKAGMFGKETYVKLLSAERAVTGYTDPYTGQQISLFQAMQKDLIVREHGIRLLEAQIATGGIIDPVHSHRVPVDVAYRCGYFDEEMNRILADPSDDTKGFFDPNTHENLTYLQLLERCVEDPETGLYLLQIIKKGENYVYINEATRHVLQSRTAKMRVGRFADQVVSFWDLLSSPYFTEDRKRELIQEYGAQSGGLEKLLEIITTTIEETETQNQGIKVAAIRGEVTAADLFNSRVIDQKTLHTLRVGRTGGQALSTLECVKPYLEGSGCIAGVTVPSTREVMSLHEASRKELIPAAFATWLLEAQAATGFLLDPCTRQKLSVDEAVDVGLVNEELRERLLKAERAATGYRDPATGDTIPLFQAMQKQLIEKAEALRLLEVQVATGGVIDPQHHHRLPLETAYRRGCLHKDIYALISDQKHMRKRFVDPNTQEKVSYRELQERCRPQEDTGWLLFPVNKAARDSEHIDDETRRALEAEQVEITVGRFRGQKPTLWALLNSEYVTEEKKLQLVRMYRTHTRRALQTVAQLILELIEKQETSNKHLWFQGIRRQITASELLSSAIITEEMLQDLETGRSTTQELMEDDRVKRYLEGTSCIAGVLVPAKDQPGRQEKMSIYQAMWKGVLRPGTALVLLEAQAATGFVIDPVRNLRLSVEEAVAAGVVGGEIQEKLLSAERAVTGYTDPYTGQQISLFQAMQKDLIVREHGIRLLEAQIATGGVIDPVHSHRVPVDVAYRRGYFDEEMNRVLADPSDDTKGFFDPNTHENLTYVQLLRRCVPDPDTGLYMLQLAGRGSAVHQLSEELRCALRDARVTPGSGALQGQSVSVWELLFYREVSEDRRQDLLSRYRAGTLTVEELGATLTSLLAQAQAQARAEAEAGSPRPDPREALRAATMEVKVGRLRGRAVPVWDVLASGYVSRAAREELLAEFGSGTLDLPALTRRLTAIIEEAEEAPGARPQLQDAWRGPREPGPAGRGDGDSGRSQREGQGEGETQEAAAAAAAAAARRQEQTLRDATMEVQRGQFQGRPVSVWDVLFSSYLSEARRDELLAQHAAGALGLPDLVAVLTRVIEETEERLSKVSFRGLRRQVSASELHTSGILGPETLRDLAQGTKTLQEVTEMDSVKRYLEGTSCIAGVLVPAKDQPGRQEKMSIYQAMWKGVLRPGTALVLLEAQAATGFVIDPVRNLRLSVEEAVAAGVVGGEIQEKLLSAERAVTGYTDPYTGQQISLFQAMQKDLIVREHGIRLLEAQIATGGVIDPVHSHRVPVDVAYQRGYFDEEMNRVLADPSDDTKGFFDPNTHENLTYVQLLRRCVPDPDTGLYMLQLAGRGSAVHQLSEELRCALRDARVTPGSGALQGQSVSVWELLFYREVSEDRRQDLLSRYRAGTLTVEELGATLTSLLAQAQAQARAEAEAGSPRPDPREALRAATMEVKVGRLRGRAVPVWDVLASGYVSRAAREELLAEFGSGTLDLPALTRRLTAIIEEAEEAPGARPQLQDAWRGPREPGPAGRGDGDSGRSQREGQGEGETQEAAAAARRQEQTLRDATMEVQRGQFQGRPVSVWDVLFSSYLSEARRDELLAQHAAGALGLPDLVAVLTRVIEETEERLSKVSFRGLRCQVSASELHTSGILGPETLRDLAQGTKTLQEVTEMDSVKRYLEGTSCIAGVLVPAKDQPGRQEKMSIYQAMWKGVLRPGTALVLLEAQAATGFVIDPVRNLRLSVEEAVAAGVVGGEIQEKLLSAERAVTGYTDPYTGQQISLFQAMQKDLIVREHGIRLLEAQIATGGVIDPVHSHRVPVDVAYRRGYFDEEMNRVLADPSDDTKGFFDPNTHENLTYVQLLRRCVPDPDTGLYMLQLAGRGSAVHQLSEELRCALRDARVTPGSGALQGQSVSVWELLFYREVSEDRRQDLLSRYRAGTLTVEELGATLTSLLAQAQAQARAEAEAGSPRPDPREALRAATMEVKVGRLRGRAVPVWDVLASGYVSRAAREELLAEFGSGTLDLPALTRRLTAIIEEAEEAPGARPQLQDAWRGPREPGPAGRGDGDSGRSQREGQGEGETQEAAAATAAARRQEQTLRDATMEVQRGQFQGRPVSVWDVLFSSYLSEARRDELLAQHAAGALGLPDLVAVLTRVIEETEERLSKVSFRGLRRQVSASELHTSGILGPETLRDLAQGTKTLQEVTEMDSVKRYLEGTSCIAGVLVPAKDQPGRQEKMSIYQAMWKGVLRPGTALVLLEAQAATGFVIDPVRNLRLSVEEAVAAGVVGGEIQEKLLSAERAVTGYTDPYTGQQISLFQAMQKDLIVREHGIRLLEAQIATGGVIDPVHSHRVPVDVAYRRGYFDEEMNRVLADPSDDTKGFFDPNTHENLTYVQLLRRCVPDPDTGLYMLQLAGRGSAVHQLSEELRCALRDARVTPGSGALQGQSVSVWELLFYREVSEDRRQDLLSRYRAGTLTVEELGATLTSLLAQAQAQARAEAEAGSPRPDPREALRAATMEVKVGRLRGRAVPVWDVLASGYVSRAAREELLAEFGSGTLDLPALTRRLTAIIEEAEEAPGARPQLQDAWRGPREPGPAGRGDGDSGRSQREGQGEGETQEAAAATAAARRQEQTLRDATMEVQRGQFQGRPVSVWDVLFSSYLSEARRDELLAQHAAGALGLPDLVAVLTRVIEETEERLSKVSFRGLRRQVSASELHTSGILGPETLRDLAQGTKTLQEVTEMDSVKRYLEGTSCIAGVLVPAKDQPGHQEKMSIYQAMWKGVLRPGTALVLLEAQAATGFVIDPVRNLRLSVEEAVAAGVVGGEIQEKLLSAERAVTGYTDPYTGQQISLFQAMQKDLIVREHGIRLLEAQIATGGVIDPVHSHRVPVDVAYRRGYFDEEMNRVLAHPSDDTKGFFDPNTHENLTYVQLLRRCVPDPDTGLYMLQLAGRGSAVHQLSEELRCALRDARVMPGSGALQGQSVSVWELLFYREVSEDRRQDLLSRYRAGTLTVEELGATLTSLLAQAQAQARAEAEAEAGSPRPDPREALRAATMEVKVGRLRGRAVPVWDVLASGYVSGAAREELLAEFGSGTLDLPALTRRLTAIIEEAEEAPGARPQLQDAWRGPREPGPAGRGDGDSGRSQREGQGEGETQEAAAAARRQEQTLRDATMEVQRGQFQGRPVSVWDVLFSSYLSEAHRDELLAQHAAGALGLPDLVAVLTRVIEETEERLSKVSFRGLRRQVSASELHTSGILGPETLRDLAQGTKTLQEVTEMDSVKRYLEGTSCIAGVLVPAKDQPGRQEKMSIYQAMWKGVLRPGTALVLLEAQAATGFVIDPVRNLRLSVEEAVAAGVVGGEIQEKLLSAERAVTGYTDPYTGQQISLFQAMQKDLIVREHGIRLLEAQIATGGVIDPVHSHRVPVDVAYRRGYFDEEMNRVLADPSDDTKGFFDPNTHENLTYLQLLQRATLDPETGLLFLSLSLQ
UniProt Q8IZ81: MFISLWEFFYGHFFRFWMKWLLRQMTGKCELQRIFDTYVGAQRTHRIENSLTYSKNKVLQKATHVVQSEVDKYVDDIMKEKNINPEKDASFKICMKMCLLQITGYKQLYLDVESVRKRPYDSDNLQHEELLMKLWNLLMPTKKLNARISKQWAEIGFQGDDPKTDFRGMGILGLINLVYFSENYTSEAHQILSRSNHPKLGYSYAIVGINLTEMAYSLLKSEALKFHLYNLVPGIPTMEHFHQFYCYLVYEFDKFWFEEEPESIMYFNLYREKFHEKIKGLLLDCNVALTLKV
UniProt Q9UKR5: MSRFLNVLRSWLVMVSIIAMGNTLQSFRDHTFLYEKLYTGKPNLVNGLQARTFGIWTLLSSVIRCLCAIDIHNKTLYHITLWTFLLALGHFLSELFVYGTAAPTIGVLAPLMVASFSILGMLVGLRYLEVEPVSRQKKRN
UniProt P38919, whole entry, looked up: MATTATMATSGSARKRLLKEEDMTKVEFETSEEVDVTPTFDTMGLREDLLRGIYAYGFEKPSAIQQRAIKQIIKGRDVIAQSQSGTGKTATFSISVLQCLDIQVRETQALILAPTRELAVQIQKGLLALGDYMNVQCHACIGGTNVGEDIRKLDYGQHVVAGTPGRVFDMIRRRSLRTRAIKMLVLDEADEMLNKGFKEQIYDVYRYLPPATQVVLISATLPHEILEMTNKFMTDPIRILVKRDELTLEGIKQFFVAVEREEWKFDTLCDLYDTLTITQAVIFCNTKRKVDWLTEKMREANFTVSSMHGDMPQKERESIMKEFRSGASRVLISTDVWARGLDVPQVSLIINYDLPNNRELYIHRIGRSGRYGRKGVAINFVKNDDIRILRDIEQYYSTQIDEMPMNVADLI
UniProt Q9GZV4: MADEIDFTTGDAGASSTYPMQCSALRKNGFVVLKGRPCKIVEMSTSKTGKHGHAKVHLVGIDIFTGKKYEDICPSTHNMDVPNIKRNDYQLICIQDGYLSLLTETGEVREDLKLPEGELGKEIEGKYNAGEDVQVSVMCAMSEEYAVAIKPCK
UniProt O75822, whole entry, looked up: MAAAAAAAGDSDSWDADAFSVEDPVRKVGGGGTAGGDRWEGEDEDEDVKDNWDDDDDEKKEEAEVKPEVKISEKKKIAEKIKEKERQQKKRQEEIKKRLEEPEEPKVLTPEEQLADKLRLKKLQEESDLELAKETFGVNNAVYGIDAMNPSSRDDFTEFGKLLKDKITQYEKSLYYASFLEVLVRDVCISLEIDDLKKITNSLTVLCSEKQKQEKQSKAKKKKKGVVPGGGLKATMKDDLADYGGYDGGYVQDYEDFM

Columns and labels:
Assay in all cases: log2 fold change, soluble protein after heating vs DMSO (PISA); higher = thermal stabilisation; K562 lysate, 10 uM; active = over 0.2 and 3.5 SD of the protein, either way, in both replicates (recomputed)
[1] = compound: CS(=O)(=O)CCNCc1ccc(-c2ccc3ncnc(Nc4ccc(OCc5cccc(F)c5)c(Cl)c4)c3c2)o1 [lapatinib]
How it was run: (§1)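 The values are log-two fold changes in thermal stability compared with solvent controls and come from duplicates. They were obtained by TMTpro 16plex LC-MS/MS, with channel sums equalised, on the supernatant after 21,000xg for 90 min. That supernatant came from crude K562 extract at 1 mg/mL protein treated with 10 μM compound for 30 min, heated for 3 min across 48°C-58°C, pooled and brought to 0.5% NP-40 at 4°C.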

[2] = compound: CS(=O)(=O)N1CCN(Cc2cc3nc(-c4cccc5[nH]ncc45)nc(N4CCOCC4)c3s2)CC1 [pictilisib]
How it was run: as §1

[3] = compound: C[C@@H](Oc1cc(-c2cnn(C3CCNCC3)c2)cnc1N)c1c(Cl)ccc(F)c1Cl [crizotinib]
How it was run: as §1

[4] = compound: C[C@H](C1=CC=C(C=C1)C(=O)NC2=C3C=CNC3=NC=C2)N
How it was run: as §1

[5] = compound: C[C@H](Nc1ncnc2nc[nH]c12)c1cc2cccc(Cl)c2c(=O)n1-c1ccccc1 [duvelisib]
How it was run: as §1

[6] = compound: Cc1cc(Nc2cc(CN3CCOCC3)c3nc(C)c(Cc4ccc(Cl)cc4F)n3n2)n[nH]1 [gandotinib]
How it was run: as §1

[7] = compound: Cc1cc(Nc2cc(N3CCN(C)CC3)nc(Sc3ccc(NC(=O)C4CC4)cc3)n2)n[nH]1 [tozasertib]
How it was run: as §1

[8] = compound: Cc1ccc(-n2nc(C(C)(C)C)cc2NC(=O)Nc2ccc(OCCN3CCOCC3)c3ccccc23)cc1 [doramapimod]
How it was run: as §1

[9] = compound: Cc1ccc(NC(=O)c2ccc(CN3CC[C@H](N(C)C)C3)c(C(F)(F)F)c2)cc1Nc1nccc(-c2cncnc2)n1 [bafetinib]
How it was run: as §1

[10] = compound: Cc1cccc(CC(=O)N2CCc3c2ccc(-c2cn(C)c4ncnc(N)c24)c3F)n1
How it was run: as §1

[11] = compound: Cc1cn(-c2cc(NC(=O)c3ccc(C)c(Nc4nccc(-c5cccnc5)n4)c3)cc(C(F)(F)F)c2)cn1 [nilotinib]
How it was run: as §1

[12] = compound: Cc1nc(Nc2n[nH]c3c2CN(C(=O)N[C@H](CN(C)C)c2ccccc2)C3(C)C)c2sccc2n1
How it was run: as §1

[13] = compound: Cc1nc(Nc2ncc(C(=O)Nc3c(C)cccc3Cl)s2)cc(N2CCN(CCO)CC2)n1 [dasatinib]
How it was run: as §1

[14] = compound: Cc1ncc(-c2ccnc(Nc3ccc(S(C)(=O)=O)cc3)n2)n1C(C)C
How it was run: as §1

[15] = compound: Cn1cc(-c2ccc3c(c2)CCN3C(=O)Cc2cccc(C(F)(F)F)c2)c2c(N)ncnc21
How it was run: as §1

[16] = compound: Cn1cc(CNCC2CCN(c3ncc(C(=O)NO)cn3)CC2)c2ccccc21 [quisinostat]
How it was run: as §1

[17] = compound: Cn1cncc1[C@@](N)(c1ccc(Cl)cc1)c1ccc2c(c1)c(-c1cccc(Cl)c1)cc(=O)n2C [tipifarnib]
How it was run: as §1

[18] = compound: NC(=O)Nc1cc(-c2cccc(F)c2)sc1C(=O)N[C@H]1CCCNC1
How it was run: as §1

[19] = compound: NC(=O)c1cnc(N[C@@H]2CCCC[C@@H]2N)nc1Nc1cccc(-n2nccn2)c1
How it was run: as §1

[20] = compound: NC1(c2ccc(-c3nc4ccn5c(=O)[nH]nc5c4cc3-c3ccccc3)cc2)CCC1
How it was run: as §1

Measured: log2 fold change

EPPK1 (UniProt P58107)
inactive: [1] -0.011 | [2] 0.084 | [3] -0.094 | [4] -0.008 | [5] -0.015 | [6] -0.023 | [7] 0.021 | [8] 0.055 | [9] -0.043 | [10] 0.041 | [11] 0 | [12] -0.001 | [13] -0.017 | [14] -0.003 | [15] -0.028 | [16] -0.084 | [17] -0.003 | [18] 0.056 | [19] 0.048 | [20] -0.035

EPB41L2 (UniProt O43491)
inactive: [1] -0.017 | [2] 0.008 | [3] 0.017 | [4] 0.069 | [5] 0.003 | [6] -0.025 | [7] 0.004 | [8] -0.002 | [9] -0.013 | [10] -0.043 | [11] 0.008 | [12] 0.014 | [13] -0.011 | [14] 0.01 | [15] -0.011 | [16] 0.026 | [17] 0.009 | [18] -0.009 | [19] -0.003 | [20] -0.005

ERAP2 (UniProt Q6P179)
inactive: [1] -0.084 | [2] -0.125 | [3] -0.15 | [7] 0.038 | [8] -0.031 | [9] -0.314 | [16] -0.244 | [18] -0.004 | [19] 0.051 | [20] -0.116

ELMOD2 (UniProt Q8IZ81)
inactive: [1] -0.01 | [2] -0.029 | [3] 0.011 | [4] 0.068 | [5] 0.001 | [6] -0.05 | [7] 0.029 | [8] 0.001 | [9] -0.002 | [10] -0.022 | [11] -0.056 | [12] -0.025 | [13] -0.054 | [14] -0.072 | [15] 0.001 | [16] 0.022 | [17] -0.006 | [18] -0.013 | [19] 0.018 | [20] 0.02

EIF4H isoform 2 (UniProt Q15056)
inactive: [1] 0.027 | [2] -0.192 | [3] 0.148 | [5] -0.027 | [7] -0.09 | [8] -0.214 | [9] 0.353 | [13] 0.089 | [15] -0.01 | [16] 0.232 | [18] 0.018 | [19] -0.064 | [20] 0

EIF4G3, A0A0U1RQK7
inactive: [1] 0.015 | [2] -0.007 | [3] 0.007 | [4] -0.051 | [5] 0.006 | [6] -0.043 | [7] -0.015 | [8] -0.001 | [9] -0.028 | [10] 0.086 | [11] 0.019 | [12] -0.02 | [13] -0.025 | [14] 0.022 | [15] 0.018 | [16] -0.017 | [17] -0.045 | [18] 0.054 | [19] 0.02 | [20] 0.017

2 successive records out of the list so far, quoted:
EPB41L2 (UniProt O43491)
inactive: [1] -0.017 | [2] 0.008 | [3] 0.017 | [4] 0.069 | [5] 0.003 | [6] -0.025 | [7] 0.004 | [8] -0.002 | [9] -0.013 | [10] -0.043 | [11] 0.008 | [12] 0.014 | [13] -0.011 | [14] 0.01 | [15] -0.011 | [16] 0.026 | [17] 0.009 | [18] -0.009 | [19] -0.003 | [20] -0.005

ERAP2 (UniProt Q6P179)
inactive: [1] -0.084 | [2] -0.125 | [3] -0.15 | [7] 0.038 | [8] -0.031 | [9] -0.314 | [16] -0.244 | [18] -0.004 | [19] 0.051 | [20] -0.116

Next results follow:

ERG28 (UniProt Q9UKR5)
inactive: [1] 0.008 | [2] 0.049 | [5] 0.014 | [6] -0.349 | [7] -0.11 | [9] 0.041 | [10] -0.392 | [13] 0.029 | [15] 0.059 | [19] -0.015
active: [4] 0.593

EMC2 (UniProt Q15006)
inactive: [1] -0.021 | [2] 0.007 | [3] 0.009 | [4] 0.026 | [5] -0.051 | [6] -0.07 | [7] 0.01 | [8] -0.027 | [9] 0.009 | [10] -0.017 | [11] 0.005 | [12] -0.015 | [13] 0.01 | [14] -0.016 | [15] 0.031 | [16] 0.026 | [17] 0.015 | [18] 0.02 | [19] 0.008 | [20] -0.009

EIF2S1 (UniProt P05198)
inactive: [1] -0.006 | [2] 0.01 | [3] -0.003 | [4] -0.048 | [5] 0.039 | [6] 0.028 | [7] 0.001 | [8] 0.029 | [9] -0.012 | [10] 0.04 | [11] 0.001 | [12] -0.02 | [13] -0.005 | [14] 0.004 | [15] 0 | [16] 0.005 | [17] 0.017 | [18] -0.036 | [19] 0.01 | [20] 0.018

ELOF1 (UniProt P60002)
inactive: [1] 0.082 | [2] -0.058 | [3] -0.228 | [4] -0.061 | [5] 0.105 | [6] -0.058 | [8] 0.165 | [9] 0.122 | [10] -0.032 | [13] -0.224 | [15] -0.02 | [16] 0.33 | [18] -0.18 | [19] -0.024 | [20] -0.055

EIF4A3 (UniProt P38919)
inactive: [1] -0.034 | [2] 0.011 | [3] -0.01 | [4] -0.116 | [5] 0.015 | [6] -0.015 | [7] -0.025 | [8] 0.051 | [9] -0.018 | [10] 0.042 | [11] -0.015 | [12] -0.031 | [13] -0.048 | [14] 0.001 | [15] -0.017 | [16] -0.021 | [17] 0.015 | [18] 0.021 | [19] 0.02 | [20] -0.009

EPHB4 (UniProt P54760)
inactive: [1] 0.023 | [2] -0.106 | [3] 0.076 | [4] -0.007 | [5] 0.01 | [6] 0.058 | [7] 0 | [8] 0.247 | [9] 0.071 | [10] 0.007 | [11] 0.163 | [12] 0.021 | [14] -0.08 | [15] 0.123 | [16] -0.135 | [17] -0.203 | [18] 0.301 | [19] 0.092 | [20] -0.034

ERCC6 (UniProt Q03468)
inactive: [1] 0.004 | [2] -0.107 | [4] 0.091 | [5] -0.392 | [6] 0.009 | [7] 0.124 | [9] 0.029 | [10] -0.028 | [11] -0.064 | [12] 0.088 | [13] 0.333 | [14] -0.055 | [15] -0.047 | [17] -0.042 | [19] -0.007 | [20] 0.039

EIF5A2 (UniProt Q9GZV4)
inactive: [1] 0.028 | [2] -0.073 | [3] -0.112 | [4] -0.246 | [5] 0.052 | [6] 0.068 | [7] -0.006 | [8] 0.053 | [9] -0.033 | [10] 0.004 | [11] 0.077 | [12] 0.034 | [13] -0.014 | [14] -0.005 | [15] 0 | [16] -0.251 | [17] 0.009 | [18] -0.002 | [19] 0.007 | [20] 0.028

EIF3J (UniProt O75822)
inactive: [1] -0.002 | [2] 0.024 | [3] 0.027 | [4] -0.03 | [5] 0.044 | [6] 0.007 | [7] 0.006 | [8] 0.019 | [9] -0.009 | [10] -0.012 | [11] 0 | [12] 0.001 | [13] 0.003 | [14] 0.022 | [15] -0.015 | [16] -0.005 | [17] 0.024 | [18] -0.016 | [19] -0.011 | [20] -0.009

EPB41, A0A2R8Y6D0
inactive: [1] 0.008 | [2] -0.14 | [3] -0.085 | [4] -0.037 | [5] -0.086 | [6] 0.031 | [7] 0.068 | [8] -0.051 | [9] -0.031 | [10] -0.003 | [11] -0.033 | [12] 0.312 | [13] 0.091 | [14] -0.044 | [15] -0.021 | [16] -0.017 | [17] -0.055 | [18] 0.043 | [19] -0.042 | [20] -0.054

ERCC4 (UniProt Q92889)
inactive: [1] -0.023 | [2] -0.013 | [3] -0.031 | [5] 0.003 | [6] 0.054 | [7] -0.059 | [8] 0.087 | [9] -0.101 | [10] 0.159 | [11] -0.047 | [12] -0.002 | [13] 0.01 | [14] -0.05 | [15] 0.033 | [16] -0.105 | [17] -0.007 | [18] 0.041 | [19] 0.027 | [20] -0.004
active: [4] -0.544
